Results taken from patent US9987307B2, “Tolerogenic dendritic cells, methods of producing the same, and uses thereof” (SOTIO A.S., priority 2014, dated 2018).
For at least one compound, name, drawing or mass did not settle the structure.

Legend:
Format in all cases: cell-based, human
glycolysis = test: Metabolic quantification: lactate in DC supernatants; details: pretreatment before restimulation, 24 h
Procedure: lactate, glucose and lactate dehydrogenase measurements: Concentrations of lactate and glucose in DC culture supernatants were measured with Glycolysis Cell-based assay kit (Cayman Chemicals) and Glucose colorimetric assay kit (BioVision), respectively. When indicated, glycolysis was suppressed by treatment with 10 mM 2-deoxyglucose (Sigma) 1 h prior exposition of DCs cultured in Cell Gro into RPMI, LPS, CC, polyI:C or CD40L. LDH activity of the DCs extracts was measured with Lactate dehydrogenase activity assay kit (Sigma).

p70S6K = test: Western blot for phosphorylated p70S6K in DCs; details: rapamycin 100 nM before restimulation, 60 min
tDCs [1] = test: IL-10 and IL-12 production of restimulated tDCs in the presence of inhibitors (ELISA); details: restimulation with CC, LPS, polyI:C, CD40L, 24 h
Procedure: (§1) To induce maturation, DC were treated with vaccine grade monophosphoryl lipid A (MPLA) (2 μg/ml, Cayla-InvivoGen) on day 6 or on day 7. On day 7 or on day 8, DC were harvested, washed and functional assays were performed. Control DC (cDC) were cultured without tolerising factors. For restimulation assays, tolDC and cDC were extensively washed and recultured in complete RPMI 1640 medium (Gibco) in the absence of tolerising factors for 24-72 h, with or without lipopolysaccharide (LPS, 1 μg/ml, Sigma-Aldrich), poly I:C (25 μg/ml, Cayla-InvivoGen), CD40L (1000 ng/ml, Enzo) or a mixture of pro-inflammatory cytokines containing IL-1β (10 ng/ml), TNFα (10 ng/ml), IL-6 (10 ng/ml) and IFNγ (100 ng/ml) (all from R&D systems). Supernatant and cells were collected for further analysis. Signaling inhibitors were added 1 h before the start of experiments under the specified stimulation conditions. […]
Cell supernatants were harvested after 24 hours of DC stimulation and frozen at −80° C. until analysis. IL-10, IL-12p70, IL-6 and TNFα concentrations were determined in cell culture supernatants of activated DCs using Luminex assay (MILLIPLEX™ Human Cytokine/Chemokine Kit, Merck Millipore) and ELISA assay (DuoSet ELISA Kit, R&D systems) according to manufacturer's instructions. […]
Cell supernatants were harvested after 24 h of DC stimulation and frozen at −80° C. until analysis. IL-10, IL-12p70, TNF-α and TGF-β concentrations were determined using Luminex assay (MILLIPLEX™ Human Cytokine/Chemokine Kit, Merck Millipore) and ELISA assay (DuoSet ELISA Kit, R&D systems) according to the manufacturer's instructions. […]
lactate, glucose and lactate dehydrogenase measurements: Concentrations of lactate and glucose in DC culture supernatants were measured with Glycolysis Cell-based assay kit (Cayman Chemicals) and Glucose colorimetric assay kit (BioVision), respectively. […]

tDCs [2] = test: ILT-3, PD-L1 and CD86 expression on restimulated tDCs in the presence of inhibitors (flow cytometry); details: restimulation 24 h
Procedure: as §1
Cells were stained with fluorochrome-conjugated mAbs for 30 min at 4° C. in PBS, washed and analysed on LSRFortessa cell analyzer (BD Biosciences). […] Data were analyzed using FlowJo software (Tree Star). […]
Cells (2×10^5/well) were stained with fluorochrome-conjugated mAbs for 30 min at 4° C. in PBS, washed and analysed on LSR Fortessa cell analyzer (BD Biosciences). […] Data were analyzed using FlowJo software (Tree Star). […]

allogeneic T cells = test: Allostimulatory assay (primary MLR, CFSE dilution); details: compared to tDCs without inhibitor; day 6
Procedure: For primary MLR assays, allogeneic T cells (2×10^5) labelled with 5 μM carboxyfluorescein succinimidyl ester (CFSE, Invitrogen) were incubated with tolDC or cDC (2×10^4) in 96-well, round-bottom plates. T cell proliferation was determined by the sequential dilution of CFSE fluorescence of T cells, as detected by flow cytometry on day 6.
T cells were obtained from PBMC non-adherent fraction. tDCs or cDCs (2×104) were cultured with allogeneic T cells (2×105) in complete RPMI medium (Gibco) containing 5% human AB serum (Invitrogen). IL-2 (20 U/ml, PeproTech) was added on day 2, 5 and 7. For primary mixed lymphocyte reaction (MLR) assays, allogeneic T cells (2×105) labelled with 5 μM carboxyfluorescein succinimidyl ester (CFSE) (Invitrogen) were incubated with tDCs or cDCs (2×104). T cell proliferation was determined by the sequential dilution of CFSE fluorescence of T cells, as detected by flow cytometry on day 6. For detection of IFN-γ, IL-10 and IL-17A production by T cells, 2×10^4 tDCs or cDCs were cultured with 2×10^5 allogeneic T cells. Cytokine production was determined by intracellular staining by flow cytometry on day 6 (IFN-γ) and day 9 (IL-10). IL-17A production from cell culture supernatants was analyzed by ELISA on day 6.

SMILES	lactate generation in Dex/VitD tDCs in the presence of inhibitor (glycolysis)	phosphorylation of p70S6K (p70S6K)	IL-10 production in tDCs in the presence of inhibitor (tDCs [1])	IL-12 production in tDCs in the presence of inhibitor (tDCs [1])	CD86 expression in tDCs in the presence of inhibitor (tDCs [2])	ILT-3 and PD-L1 expression in tDCs in the presence of inhibitor (tDCs [2])	ability of inhibitor-pretreated tDCs to stimulate allogeneic T cell proliferation (allogeneic T cells)
CO[C@H]1C[C@@H]2CC[C@@H](C)[C@@](O)(O2)C(=O)C(=O)N2CCCC[C@H]2C(=O)O[C@H]([C@H](C)C[C@@H]2CC[C@@H](O)[C@H](OC)C2)CC(=O)[C@H](C)/C=C(\C)[C@@H](O)[C@@H](OC)C(=O)[C@H](C)C[C@H](C)/C=C/C=C/C=C/1C [rapamycin]	markedly down-regulated lactate generation	abrogated	reduced IL-10 production	not able to restore IL-12 production	significantly increased CD86 expression	markedly reduced expression	partial restoration
Oc1c2ccccc2c2c3c(cccc13)N=N2 [SP600125]			significantly dependent				
